Reference: publication PMC4191077
Results are given in words; binding and its absence hold for the method and conditions named. Some binding calls cover weakened binding; strength is not graded here. Where a sequence is shown, tags or fusion partners need not be part of it.

The chains behind the UniProt entries cited, without tags or fusion partners. Where a name states a change or a piece, a line headed by the entry shows the natural chain unless it says otherwise.
UniProt P60529: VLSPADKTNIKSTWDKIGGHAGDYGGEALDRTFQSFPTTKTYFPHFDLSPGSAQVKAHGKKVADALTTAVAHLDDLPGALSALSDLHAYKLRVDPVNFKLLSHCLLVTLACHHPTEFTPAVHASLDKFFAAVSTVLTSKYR

Target: T1, Endogenous dog haptoglobin (glucocorticoid enhanced, in Beagle plasma) (dog (endogenous in Beagle plasma)) (UniProt P19006)
T1 sequence 1: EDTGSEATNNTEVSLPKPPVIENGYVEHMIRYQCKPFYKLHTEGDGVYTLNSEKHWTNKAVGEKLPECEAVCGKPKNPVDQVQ
T1 sequence 2: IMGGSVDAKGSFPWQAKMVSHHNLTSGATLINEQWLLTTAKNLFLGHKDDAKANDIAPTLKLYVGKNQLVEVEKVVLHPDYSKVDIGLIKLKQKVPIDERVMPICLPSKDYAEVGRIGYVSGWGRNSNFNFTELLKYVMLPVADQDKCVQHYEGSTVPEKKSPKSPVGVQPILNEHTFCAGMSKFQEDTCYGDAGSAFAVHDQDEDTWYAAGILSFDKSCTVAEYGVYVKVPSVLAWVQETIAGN
Assay: SEC; plasma (50 uL) of prednisone pre-treated Beagle dogs after a 4 g i.v. bolus of purified Hb; Hb bound to endogenous dog Hp in vivo; BioSep-SEC-S3000, peak areas of Hb and Hb:Hp at 405 nm; only the binder purified

binding: binds
Substance: Dog hemoglobin (from UniProt P60529 1-141; P60524 1-146)
